Test results taken from the supplement of paper PMC12823440, “Inhibitors supercharge kinase turnover through native proteolytic circuits” (Nature, 2025).
Structures can show the parent of a compound that is named as a salt. The list shows a part of the results. The calls rarely recur for the same compound in another form.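 In K562 cells expressing nanoluciferase-fused kinases, luminescence was recorded at 4 h intervals between 2 and 18 h, normalized as percent of control with DMSO at 100% and a positive control at 0%. A significant (2 sigma) signal drop marks a time point as decreased. The authors' rule for a hit is not shown and takes in more than the number of time points.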

Amino acid sequences for entries named in this document (tags omitted). A change or cut given only in a name is not applied to a line headed by its entry.
UniProt P21860, whole entry: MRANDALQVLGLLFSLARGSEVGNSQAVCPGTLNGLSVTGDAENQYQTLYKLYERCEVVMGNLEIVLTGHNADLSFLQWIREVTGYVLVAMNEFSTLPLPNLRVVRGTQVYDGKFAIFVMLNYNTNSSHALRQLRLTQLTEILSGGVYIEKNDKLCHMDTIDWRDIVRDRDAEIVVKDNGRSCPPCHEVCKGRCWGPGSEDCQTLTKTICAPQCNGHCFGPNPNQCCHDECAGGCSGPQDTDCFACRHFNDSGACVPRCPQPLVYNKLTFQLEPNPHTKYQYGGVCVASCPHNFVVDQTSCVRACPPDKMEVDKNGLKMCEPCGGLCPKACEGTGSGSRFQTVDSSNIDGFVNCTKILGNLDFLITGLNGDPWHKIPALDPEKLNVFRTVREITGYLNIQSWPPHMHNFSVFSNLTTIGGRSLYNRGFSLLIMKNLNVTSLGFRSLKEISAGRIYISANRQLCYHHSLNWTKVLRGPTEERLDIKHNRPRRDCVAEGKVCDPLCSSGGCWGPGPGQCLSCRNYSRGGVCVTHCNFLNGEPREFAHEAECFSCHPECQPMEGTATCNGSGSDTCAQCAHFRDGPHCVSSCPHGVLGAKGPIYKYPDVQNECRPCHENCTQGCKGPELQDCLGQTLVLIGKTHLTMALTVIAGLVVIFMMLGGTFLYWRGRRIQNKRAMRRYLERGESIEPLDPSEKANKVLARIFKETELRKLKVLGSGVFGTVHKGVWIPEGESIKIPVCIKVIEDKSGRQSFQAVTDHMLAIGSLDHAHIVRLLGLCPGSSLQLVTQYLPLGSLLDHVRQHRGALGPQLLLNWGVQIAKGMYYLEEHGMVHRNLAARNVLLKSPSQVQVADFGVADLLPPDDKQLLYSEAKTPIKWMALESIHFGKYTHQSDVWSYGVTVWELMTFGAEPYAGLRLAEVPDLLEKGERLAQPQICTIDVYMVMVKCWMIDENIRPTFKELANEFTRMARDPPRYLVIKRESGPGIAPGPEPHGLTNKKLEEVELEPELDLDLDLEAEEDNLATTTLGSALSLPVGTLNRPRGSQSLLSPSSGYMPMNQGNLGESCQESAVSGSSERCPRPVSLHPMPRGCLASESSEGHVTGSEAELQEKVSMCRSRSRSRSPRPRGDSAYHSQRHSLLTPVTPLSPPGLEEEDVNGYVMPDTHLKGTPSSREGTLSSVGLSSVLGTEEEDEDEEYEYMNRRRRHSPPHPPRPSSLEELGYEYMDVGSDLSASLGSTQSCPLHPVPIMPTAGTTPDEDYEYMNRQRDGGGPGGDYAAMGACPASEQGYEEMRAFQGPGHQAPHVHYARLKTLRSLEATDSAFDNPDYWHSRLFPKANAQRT
UniProt Q15303, whole entry R711C: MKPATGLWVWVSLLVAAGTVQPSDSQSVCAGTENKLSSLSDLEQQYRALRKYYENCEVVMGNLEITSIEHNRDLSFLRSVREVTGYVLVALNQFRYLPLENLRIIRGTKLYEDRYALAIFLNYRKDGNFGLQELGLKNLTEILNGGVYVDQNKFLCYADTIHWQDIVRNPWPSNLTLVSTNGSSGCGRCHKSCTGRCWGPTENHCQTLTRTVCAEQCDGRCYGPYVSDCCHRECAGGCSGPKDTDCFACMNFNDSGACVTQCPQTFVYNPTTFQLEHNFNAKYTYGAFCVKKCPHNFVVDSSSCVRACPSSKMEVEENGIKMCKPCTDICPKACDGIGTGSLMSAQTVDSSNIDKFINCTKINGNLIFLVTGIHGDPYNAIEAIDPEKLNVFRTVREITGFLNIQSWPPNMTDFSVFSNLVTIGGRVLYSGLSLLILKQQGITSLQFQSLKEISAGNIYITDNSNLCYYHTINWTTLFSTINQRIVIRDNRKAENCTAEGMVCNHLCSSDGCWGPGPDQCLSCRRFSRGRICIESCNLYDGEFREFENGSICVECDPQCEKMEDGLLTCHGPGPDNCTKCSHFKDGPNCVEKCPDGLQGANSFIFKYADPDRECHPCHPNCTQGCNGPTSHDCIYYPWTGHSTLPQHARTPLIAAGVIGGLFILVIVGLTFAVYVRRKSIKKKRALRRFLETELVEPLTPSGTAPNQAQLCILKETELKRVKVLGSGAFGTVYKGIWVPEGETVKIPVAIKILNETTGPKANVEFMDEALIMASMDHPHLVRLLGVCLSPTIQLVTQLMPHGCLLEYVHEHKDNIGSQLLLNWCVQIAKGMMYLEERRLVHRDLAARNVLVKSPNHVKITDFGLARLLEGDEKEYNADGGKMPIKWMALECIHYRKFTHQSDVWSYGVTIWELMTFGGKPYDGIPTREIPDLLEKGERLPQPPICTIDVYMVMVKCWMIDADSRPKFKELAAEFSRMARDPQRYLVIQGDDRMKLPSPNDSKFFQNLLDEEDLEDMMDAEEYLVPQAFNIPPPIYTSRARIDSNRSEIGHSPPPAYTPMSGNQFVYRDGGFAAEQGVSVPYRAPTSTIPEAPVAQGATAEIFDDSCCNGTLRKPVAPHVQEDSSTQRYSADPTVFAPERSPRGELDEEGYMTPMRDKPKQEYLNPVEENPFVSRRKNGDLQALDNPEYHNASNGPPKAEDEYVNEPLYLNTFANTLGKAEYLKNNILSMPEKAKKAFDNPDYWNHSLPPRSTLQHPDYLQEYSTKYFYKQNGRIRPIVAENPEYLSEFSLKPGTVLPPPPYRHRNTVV
UniProt P11362, whole entry, looked up: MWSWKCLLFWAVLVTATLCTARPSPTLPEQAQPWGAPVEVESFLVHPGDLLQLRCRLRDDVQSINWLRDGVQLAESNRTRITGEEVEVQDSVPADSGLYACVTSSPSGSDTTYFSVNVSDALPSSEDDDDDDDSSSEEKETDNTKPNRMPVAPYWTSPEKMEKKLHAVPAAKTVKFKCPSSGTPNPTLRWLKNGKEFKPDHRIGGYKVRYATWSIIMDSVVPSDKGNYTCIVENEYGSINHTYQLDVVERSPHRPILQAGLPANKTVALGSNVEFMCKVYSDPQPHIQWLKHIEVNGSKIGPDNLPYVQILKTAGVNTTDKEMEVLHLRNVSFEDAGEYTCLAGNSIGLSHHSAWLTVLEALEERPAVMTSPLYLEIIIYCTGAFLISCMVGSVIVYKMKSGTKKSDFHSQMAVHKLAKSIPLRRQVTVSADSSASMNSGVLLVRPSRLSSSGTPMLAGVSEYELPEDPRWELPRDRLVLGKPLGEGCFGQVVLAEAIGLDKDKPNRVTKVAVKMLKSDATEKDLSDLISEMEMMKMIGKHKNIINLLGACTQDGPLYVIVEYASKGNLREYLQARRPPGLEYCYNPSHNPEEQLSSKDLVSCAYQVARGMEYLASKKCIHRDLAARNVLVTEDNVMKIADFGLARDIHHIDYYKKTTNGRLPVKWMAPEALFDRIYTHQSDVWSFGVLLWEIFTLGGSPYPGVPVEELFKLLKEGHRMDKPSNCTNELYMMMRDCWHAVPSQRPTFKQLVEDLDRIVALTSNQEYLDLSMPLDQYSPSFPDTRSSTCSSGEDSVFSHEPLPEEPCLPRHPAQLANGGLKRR
UniProt P36888, whole entry: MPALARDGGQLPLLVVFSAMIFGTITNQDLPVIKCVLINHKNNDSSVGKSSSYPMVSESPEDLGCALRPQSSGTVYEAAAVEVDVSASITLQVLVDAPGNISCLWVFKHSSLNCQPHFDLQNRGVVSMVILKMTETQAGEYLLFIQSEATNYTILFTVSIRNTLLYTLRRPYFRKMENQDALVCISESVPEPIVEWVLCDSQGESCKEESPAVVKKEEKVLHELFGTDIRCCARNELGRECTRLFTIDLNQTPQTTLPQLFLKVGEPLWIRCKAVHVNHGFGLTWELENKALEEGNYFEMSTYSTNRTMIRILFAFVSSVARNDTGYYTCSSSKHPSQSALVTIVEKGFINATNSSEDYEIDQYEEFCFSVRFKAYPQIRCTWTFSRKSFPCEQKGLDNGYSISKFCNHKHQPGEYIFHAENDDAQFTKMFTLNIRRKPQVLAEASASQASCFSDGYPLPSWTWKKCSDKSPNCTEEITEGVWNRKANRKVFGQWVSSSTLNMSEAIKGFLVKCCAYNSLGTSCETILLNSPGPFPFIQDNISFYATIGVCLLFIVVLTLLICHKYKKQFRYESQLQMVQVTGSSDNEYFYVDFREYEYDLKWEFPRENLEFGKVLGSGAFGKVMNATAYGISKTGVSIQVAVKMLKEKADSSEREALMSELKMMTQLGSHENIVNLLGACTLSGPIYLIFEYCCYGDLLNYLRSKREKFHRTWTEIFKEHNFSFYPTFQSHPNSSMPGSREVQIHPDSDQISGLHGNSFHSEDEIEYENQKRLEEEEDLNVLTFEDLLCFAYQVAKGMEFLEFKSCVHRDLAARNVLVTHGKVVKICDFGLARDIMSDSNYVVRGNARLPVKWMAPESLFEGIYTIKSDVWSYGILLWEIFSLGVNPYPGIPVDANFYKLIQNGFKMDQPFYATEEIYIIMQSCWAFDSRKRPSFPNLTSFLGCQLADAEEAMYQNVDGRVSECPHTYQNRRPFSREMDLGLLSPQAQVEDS
UniProt P06241, whole entry, looked up: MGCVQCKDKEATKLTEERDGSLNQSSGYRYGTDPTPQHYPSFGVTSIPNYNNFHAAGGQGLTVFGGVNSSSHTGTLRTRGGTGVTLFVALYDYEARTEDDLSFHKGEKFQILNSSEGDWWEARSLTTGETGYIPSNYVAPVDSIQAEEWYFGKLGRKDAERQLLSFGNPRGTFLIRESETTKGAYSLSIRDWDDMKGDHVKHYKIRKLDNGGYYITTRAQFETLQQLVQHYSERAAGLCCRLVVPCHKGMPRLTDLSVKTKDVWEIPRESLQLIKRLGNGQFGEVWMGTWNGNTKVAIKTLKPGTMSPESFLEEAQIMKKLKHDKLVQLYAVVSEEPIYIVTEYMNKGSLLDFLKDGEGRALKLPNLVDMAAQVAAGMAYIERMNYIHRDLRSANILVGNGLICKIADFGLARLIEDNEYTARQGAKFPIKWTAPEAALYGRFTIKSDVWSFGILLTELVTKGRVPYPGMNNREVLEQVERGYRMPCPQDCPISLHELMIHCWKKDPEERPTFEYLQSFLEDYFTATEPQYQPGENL
UniProt P14616: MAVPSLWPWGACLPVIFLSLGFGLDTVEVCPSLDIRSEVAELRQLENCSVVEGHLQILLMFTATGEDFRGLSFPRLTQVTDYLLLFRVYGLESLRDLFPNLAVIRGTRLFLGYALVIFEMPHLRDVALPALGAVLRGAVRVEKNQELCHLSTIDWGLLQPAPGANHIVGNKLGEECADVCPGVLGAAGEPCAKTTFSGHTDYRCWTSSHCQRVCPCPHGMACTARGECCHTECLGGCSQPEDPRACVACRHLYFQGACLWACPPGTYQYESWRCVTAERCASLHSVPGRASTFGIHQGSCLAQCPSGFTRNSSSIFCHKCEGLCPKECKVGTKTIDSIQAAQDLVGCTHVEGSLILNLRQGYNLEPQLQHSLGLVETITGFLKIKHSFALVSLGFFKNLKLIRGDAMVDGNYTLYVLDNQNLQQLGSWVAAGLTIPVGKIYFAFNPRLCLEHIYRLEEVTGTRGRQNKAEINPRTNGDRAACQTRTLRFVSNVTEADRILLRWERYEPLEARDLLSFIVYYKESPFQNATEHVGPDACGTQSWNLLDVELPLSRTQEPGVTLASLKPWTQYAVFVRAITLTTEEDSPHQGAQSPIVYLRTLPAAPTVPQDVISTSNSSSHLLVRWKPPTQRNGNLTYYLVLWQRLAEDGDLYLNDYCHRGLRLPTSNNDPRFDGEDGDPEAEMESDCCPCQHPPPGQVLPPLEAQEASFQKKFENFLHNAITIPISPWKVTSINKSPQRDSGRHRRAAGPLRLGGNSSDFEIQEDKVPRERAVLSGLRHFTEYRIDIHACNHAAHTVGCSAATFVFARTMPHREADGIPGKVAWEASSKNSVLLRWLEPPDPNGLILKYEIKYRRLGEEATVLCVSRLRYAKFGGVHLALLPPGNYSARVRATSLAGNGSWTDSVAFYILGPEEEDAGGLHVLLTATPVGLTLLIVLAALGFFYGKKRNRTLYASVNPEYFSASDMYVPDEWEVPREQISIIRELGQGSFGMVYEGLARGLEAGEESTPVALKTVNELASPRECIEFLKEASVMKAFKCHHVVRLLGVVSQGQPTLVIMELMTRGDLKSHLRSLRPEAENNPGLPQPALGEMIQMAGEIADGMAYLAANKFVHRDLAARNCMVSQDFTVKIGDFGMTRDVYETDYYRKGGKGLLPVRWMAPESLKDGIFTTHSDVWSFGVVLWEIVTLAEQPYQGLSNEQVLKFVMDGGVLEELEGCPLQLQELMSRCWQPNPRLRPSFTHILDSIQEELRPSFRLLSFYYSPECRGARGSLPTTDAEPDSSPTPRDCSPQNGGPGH

What was measured:
Experiment in all cases: kinase-Nluc reporter destabilization hit call (1 = scored as downregulated) (binary); higher = compound decreases kinase abundance
Settings in all cases: K562; 2-18 h
EGFR = EGFR (UniProt P00533)
EGFR_G719S = EGFR_G719S (UniProt P00533)
EGFR_G719S_T790M = EGFR_G719S_T790M (UniProt P00533)
EGFR_L718V = EGFR_L718V (UniProt P00533)
EGFR_L858R = EGFR_L858R (UniProt P00533)
EGFR_L861Q = EGFR_L861Q (UniProt P00533)
EGFR_T790M = EGFR_T790M (UniProt P00533)
EPHA2 = EPHA2 (UniProt P29317)
ERBB3 = ERBB3 (UniProt P21860)
[1] = biological target: ERBB4_R711C (clone: ERBB4_mut) (UniProt Q15303)
ERN1 = ERN1 (UniProt O75460)
FGFR1 = FGFR1 (UniProt P11362)
FGFR2 = FGFR2 (UniProt P21802)
FGFR3 = FGFR3 (UniProt P22607)
FGR = FGR (UniProt P09769)
FLT3 = FLT3 (UniProt P36888)
FYN = FYN (UniProt P06241)
GSK3A = GSK3A (UniProt P49840)
HER2 = HER2 (UniProt P04626)
INSRR = INSRR (UniProt P14616)

Measured: kinase-Nluc reporter destabilization hit call

Cc1cc(O)c(C(C)C)cc1N=O [Poloxime] (10 µM)
inactive: EGFR 0 | EGFR_G719S 0 | EGFR_G719S_T790M 0 | EGFR_L718V 0 | EGFR_L858R 0 | EGFR_L861Q 0 | EGFR_T790M 0 | EPHA2 = 0 | ERBB3 = 0 | [1] 0 | ERN1 = 0 | FGFR1 = 0 | FGFR2 = 0 | FGFR3 = 0 | FGR 0 | FLT3 = 0 | FYN 0 | GSK3A 0 | HER2 = 0 | INSRR 0

COc1ccc2c(c1O)OC(C)(C)c1c-2ccc2c1C(=O)N(c1ccc(C(=O)c3ccccc3)cc1)C2=O [Ampkinone] (10 µM)
inactive: EGFR 0 | EGFR_G719S 0 | EGFR_G719S_T790M 0 | EGFR_L718V 0 | EGFR_L858R 0 | EGFR_L861Q 0 | EGFR_T790M 0 | EPHA2 = 0 | ERBB3 = 0 | [1] 0 | ERN1 = 0 | FGFR1 = 0 | FGFR2 = 0 | FGFR3 = 0 | FGR 0 | FLT3 = 0 | FYN 0 | GSK3A 0 | HER2 = 0 | INSRR 0

CN1C(=O)C(Cc2c[nH]c3ccccc23)NC1=S (stereo not given) [Necrostatin-1] (10 µM)
inactive: EGFR 0 | EGFR_G719S 0 | EGFR_G719S_T790M 0 | EGFR_L718V 0 | EGFR_L858R 0 | EGFR_L861Q 0 | EGFR_T790M 0 | EPHA2 = 0 | ERBB3 = 0 | [1] 0 | ERN1 = 0 | FGFR1 = 0 | FGFR2 = 0 | FGFR3 = 0 | FGR 0 | FLT3 = 0 | FYN 0 | GSK3A 0 | HER2 = 0 | INSRR 0

COc1ccc(Cl)cc1NC(=O)Nc1cc(C)nc2ccccc12 (2.5 µM)
inactive: EGFR 0 | EGFR_G719S 0 | EGFR_G719S_T790M 0 | EGFR_L718V 0 | EGFR_L858R 0 | EGFR_L861Q 0 | EGFR_T790M 0 | EPHA2 = 0 | ERBB3 = 0 | [1] 0 | ERN1 = 0 | FGFR1 = 0 | FGFR2 = 0 | FGFR3 = 0 | FGR 0 | FLT3 = 0 | FYN 0 | GSK3A 0 | HER2 = 0 | INSRR 0

Cc1cc([C@H](C)Nc2ccccc2)c2oc(N3CCOCC3)cc(=O)c2c1 (10 µM)
inactive: EGFR 0 | EGFR_G719S 0 | EGFR_G719S_T790M 0 | EGFR_L718V 0 | EGFR_L858R 0 | EGFR_L861Q 0 | EGFR_T790M 0 | EPHA2 = 0 | ERBB3 = 0 | [1] 0 | ERN1 = 0 | FGFR1 = 0 | FGFR2 = 0 | FGFR3 = 0 | FGR 0 | FLT3 = 0 | FYN 0 | GSK3A 0 | HER2 = 0 | INSRR 0

OC[C@H]1O[C@@H](Oc2cc3c(O)cc(O)cc3[o+]c2-c2cc(O)c(O)c(O)c2)[C@H](O)[C@@H](O)[C@@H]1O [Delphinidin 3-glucoside (chloride)] (10 µM)
inactive: EGFR 0 | EGFR_G719S 0 | EGFR_G719S_T790M 0 | EGFR_L718V 0 | EGFR_L858R 0 | EGFR_L861Q 0 | EGFR_T790M 0 | EPHA2 = 0 | ERBB3 = 0 | [1] 0 | ERN1 = 0 | FGFR1 = 0 | FGFR2 = 0 | FGFR3 = 0 | FGR 0 | FLT3 = 0 | FYN 0 | GSK3A 0 | HER2 = 0 | INSRR 0

Nc1ncnc2c1c(-c1ccc(Oc3ccccc3)cc1)nn2C1CCNCC1 [N-piperidine Ibrutinib (hydrochloride)] (10 µM)
inactive: EGFR 0 | EGFR_G719S 0 | EGFR_G719S_T790M 0 | EGFR_L718V 0 | EGFR_L858R 0 | EGFR_L861Q 0 | EGFR_T790M 0 | EPHA2 = 0 | ERBB3 = 0 | [1] 0 | ERN1 = 0 | FGFR1 = 0 | FGFR2 = 0 | FGFR3 = 0 | FGR 0 | FLT3 = 0 | FYN 0 | GSK3A 0 | HER2 = 0 | INSRR 0

NCCN1CCN(C/C=C/C(=O)N2CCC[C@@H](n3nc(-c4ccc(Oc5ccccc5)cc4)c4c(N)ncnc43)C2)CC1 [Ibrutinib-MPEA] (10 µM)
inactive: EGFR 0 | EGFR_G719S 0 | EGFR_G719S_T790M 0 | EGFR_L718V 0 | EGFR_L858R 0 | EGFR_L861Q 0 | EGFR_T790M 0 | EPHA2 = 0 | ERBB3 = 0 | [1] 0 | ERN1 = 0 | FGFR1 = 0 | FGFR2 = 0 | FGFR3 = 0 | FGR 0 | FLT3 = 0 | FYN 0 | GSK3A 0 | HER2 = 0 | INSRR 0

COCCO[C@@H]1[C@H](O)[C@@H](CO)O[C@H]1n1cnc2c(=O)[nH]c(N)nc21 [2′-O-(2-Methoxyethyl)guanosine] (10 µM)
inactive: EGFR 0 | EGFR_G719S 0 | EGFR_G719S_T790M 0 | EGFR_L718V 0 | EGFR_L858R 0 | EGFR_L861Q 0 | EGFR_T790M 0 | EPHA2 = 0 | ERBB3 = 0 | [1] 0 | ERN1 = 0 | FGFR1 = 0 | FGFR2 = 0 | FGFR3 = 0 | FGR 0 | FLT3 = 0 | FYN 0 | GSK3A 0 | HER2 = 0 | INSRR 0

COC1(c2sc3c(N4CCOCC4)nc(-c4cnc(N)nc4)nc3c2C)COC1 (2.5 µM)
inactive: EGFR 0 | EGFR_G719S 0 | EGFR_G719S_T790M 0 | EGFR_L718V 0 | EGFR_L858R 0 | EGFR_L861Q 0 | EGFR_T790M 0 | EPHA2 = 0 | ERBB3 = 0 | [1] 0 | ERN1 = 0 | FGFR1 = 0 | FGFR2 = 0 | FGFR3 = 0 | FGR 0 | FLT3 = 0 | FYN 0 | GSK3A 0 | HER2 = 0 | INSRR 0

Cc1ccc(-c2c(C(=O)CF)n(CCCO)c3ncnc(N)c23)cc1 (10 µM)
inactive: EGFR 0 | EGFR_G719S 0 | EGFR_G719S_T790M 0 | EGFR_L718V 0 | EGFR_L858R 0 | EGFR_L861Q 0 | EGFR_T790M 0 | EPHA2 = 0 | ERBB3 = 0 | [1] 0 | ERN1 = 0 | FGFR1 = 0 | FGFR2 = 0 | FGFR3 = 0 | FGR 0 | FLT3 = 0 | FYN 0 | GSK3A 0 | HER2 = 0 | INSRR 0

CC(C)c1cnc(-c2cc(Cl)ccc2F)cc1Nc1ccncc1C(=O)NC(CO)CO (2.5 µM)
inactive: EGFR 0 | EGFR_G719S 0 | EGFR_G719S_T790M 0 | EGFR_L718V 0 | EGFR_L858R 0 | EGFR_L861Q 0 | EGFR_T790M 0 | EPHA2 = 0 | ERBB3 = 0 | [1] 0 | ERN1 = 0 | FGFR1 = 0 | FGFR2 = 0 | FGFR3 = 0 | FGR 0 | FLT3 = 0 | FYN 0 | GSK3A 0 | HER2 = 0 | INSRR 0

Nc1nccc(Oc2ccc(NC(=O)c3cn(COP(=O)(O)O)cc(-c4ccc(F)cc4)c3=O)cc2F)c1Cl (10 µM)
inactive: EGFR 0 | EGFR_G719S 0 | EGFR_G719S_T790M 0 | EGFR_L718V 0 | EGFR_L858R 0 | EGFR_L861Q 0 | EGFR_T790M 0 | EPHA2 = 0 | ERBB3 = 0 | [1] 0 | ERN1 = 0 | FGFR1 = 0 | FGFR2 = 0 | FGFR3 = 0 | FGR 0 | FLT3 = 0 | FYN 0 | GSK3A 0 | HER2 = 0 | INSRR 0

C[C@@]1(O)CCC[C@H]1n1c(=O)c(C(F)F)cc2cnc(NC3CCN(S(C)(=O)=O)CC3)nc21 (2.5 µM)
inactive: EGFR 0 | EGFR_G719S 0 | EGFR_G719S_T790M 0 | EGFR_L718V 0 | EGFR_L858R 0 | EGFR_L861Q 0 | EGFR_T790M 0 | EPHA2 = 0 | ERBB3 = 0 | [1] 0 | ERN1 = 0 | FGFR1 = 0 | FGFR2 = 0 | FGFR3 = 0 | FGR 0 | FLT3 = 0 | FYN 0 | GSK3A 0 | HER2 = 0 | INSRR 0

Quoted from above (2 entries):
CC(C)c1cnc(-c2cc(Cl)ccc2F)cc1Nc1ccncc1C(=O)NC(CO)CO (2.5 µM)
inactive: EGFR 0 | EGFR_G719S 0 | EGFR_G719S_T790M 0 | EGFR_L718V 0 | EGFR_L858R 0 | EGFR_L861Q 0 | EGFR_T790M 0 | EPHA2 = 0 | ERBB3 = 0 | [1] 0 | ERN1 = 0 | FGFR1 = 0 | FGFR2 = 0 | FGFR3 = 0 | FGR 0 | FLT3 = 0 | FYN 0 | GSK3A 0 | HER2 = 0 | INSRR 0

Nc1nccc(Oc2ccc(NC(=O)c3cn(COP(=O)(O)O)cc(-c4ccc(F)cc4)c3=O)cc2F)c1Cl (10 µM)
inactive: EGFR 0 | EGFR_G719S 0 | EGFR_G719S_T790M 0 | EGFR_L718V 0 | EGFR_L858R 0 | EGFR_L861Q 0 | EGFR_T790M 0 | EPHA2 = 0 | ERBB3 = 0 | [1] 0 | ERN1 = 0 | FGFR1 = 0 | FGFR2 = 0 | FGFR3 = 0 | FGR 0 | FLT3 = 0 | FYN 0 | GSK3A 0 | HER2 = 0 | INSRR 0

(more compounds)

c1cc2c(cc1O[C@H]1OC[C@H]3[C@@H]1CO[C@@H]3c1ccc3c(c1)OCO3)OCO2 [Sesamolin] (10 µM)
inactive: EGFR 0 | EGFR_G719S 0 | EGFR_G719S_T790M 0 | EGFR_L718V 0 | EGFR_L858R 0 | EGFR_L861Q 0 | EGFR_T790M 0 | EPHA2 = 0 | ERBB3 = 0 | [1] 0 | ERN1 = 0 | FGFR1 = 0 | FGFR2 = 0 | FGFR3 = 0 | FGR 0 | FLT3 = 0 | FYN 0 | GSK3A 0 | HER2 = 0 | INSRR 0

O=C(NCCO)c1ccc2c(c1)nc(Nc1cccc(Cl)c1)c1ccncc12 [CK2 inhibitor 2] (10 µM)
inactive: EGFR 0 | EGFR_G719S 0 | EGFR_G719S_T790M 0 | EGFR_L718V 0 | EGFR_L858R 0 | EGFR_L861Q 0 | EGFR_T790M 0 | EPHA2 = 0 | ERBB3 = 0 | [1] 0 | ERN1 = 0 | FGFR1 = 0 | FGFR2 = 0 | FGFR3 = 0 | FGR 0 | FLT3 = 0 | FYN 0 | GSK3A 0 | HER2 = 0 | INSRR 0

CC(C)CC1(O)CCN(C(=O)c2ccc(NS(=O)(=O)c3cccc4nccnc34)cc2)CC1 (10 µM)
inactive: EGFR 0 | EGFR_G719S 0 | EGFR_G719S_T790M 0 | EGFR_L718V 0 | EGFR_L858R 0 | EGFR_L861Q 0 | EGFR_T790M 0 | EPHA2 = 0 | ERBB3 = 0 | [1] 0 | ERN1 = 0 | FGFR1 = 0 | FGFR2 = 0 | FGFR3 = 0 | FGR 0 | FLT3 = 0 | FYN 0 | GSK3A 0 | HER2 = 0 | INSRR 0

CN(CCNc1ccc2ncc(-c3ccc(C(N)=O)cc3)n2n1)C(=O)OC(C)(C)C (10 µM)
inactive: EGFR 0 | EGFR_G719S 0 | EGFR_G719S_T790M 0 | EGFR_L718V 0 | EGFR_L858R 0 | EGFR_L861Q 0 | EGFR_T790M 0 | EPHA2 = 0 | ERBB3 = 0 | [1] 0 | ERN1 = 0 | FGFR1 = 0 | FGFR2 = 0 | FGFR3 = 0 | FGR 0 | FLT3 = 0 | FYN 0 | GSK3A 0 | HER2 = 0 | INSRR 0
